{
  "source": "patent US20060040924A1",
  "about": "“Derivatives of aryl (or heteroaryl) azolylcarbinols for the treatment of renal colic” (Laboratorios Dr. Esteve S.A., priority 2004, published 2006)",
  "system": "patients presenting with acute pain from suspected renal colic",
  "test": "Clinical Study A: analgesic efficacy and safety of cizolirtine citrate versus sodium metamizol, single intravenous dose",
  "type": "in vivo, human",
  "conditions": "entire study period (6 hours); censured by time of rescue medication",
  "method": "Objectives: to compare the analgesic efficacy and safety of cizolirtine citrate, an inhibitor of the release of the substance P, versus sodium metamizol to treat acute pain. Method: sixty four patients presenting with acute pain from suspected renal colic were randomized to a single intravenous dose of either 350 mg of cizolirtine citrate or 2,500 mg of sodium metamizol. Pain was assessed throughout 6 hours by means of visual analogical (VAS) and categorical scales. Results: renal colic was confirmed in all patients randomized. After 30 minutes, pain adjusted mean scores (100 mm VAS) were (LSM±SEM) 39.203±4.4 mm and 30.155±4.2 mm. In the cizolirtine and metamizol groups, respectively (p=0.1203). […] However, efficacy was lower than that of the comparator, an established treatment.\nStudy population: Subjects of either sex aged between 18 and 65 years old suffering moderate to severe pain due to a suspected renal colic starting within previous 24 hour and having a urine dipstick test positive for haematuria. Since this was an exploratory pilot phase II study, a formal sample size calculation was not performed. […] Nevertheless, to detect a difference of at least 25 mm in pain intensity measured with the VAS assuming a common standard deviation of 36.1 by means of a one-sided t test, 26 patients per group were necessary. […]\nMeasurements: Patients ranked their pain intensity on both a visual analogical scale (VAS) and a verbal categorical scale at baseline and 15, 30 and 45 minutes and 1, 2, 3, 4, […] after receiving the study drug. Vital signs were determined also at 15, 30 and 45 minutes and at 1 and 6 hours. […]\nPrimary endpoint: mean pain intensity as determined by the VAS 30 minutes after the start of study drug administration (t+30 min).\nStatistics: Demographic and baseline continuous variables values were compared between treatment groups by means of a t test. […] In addition, the bilateral 95% confidence interval was calculated for the difference between treatments. […]",
  "note": "At least one structure is not confirmed: it was looked up by name or label, or the drawing left a doubt.",
  "data": [
    {"compound": "Cc1c(N(C)CS(=O)(=O)[O-])c(=O)n(-c2ccccc2)n1C.[Na+]", "note": "[Metamizol, sodium metamizol]", "values": [
      {"measurement": "SAPID (sum of pain intensity differences, visual analogical scale), mean [SD]", "result": "442.11 [78.46] mm"},
      {"measurement": "SCPID (sum of pain intensity differences, categorical scale), mean [SD]", "result": "14.11 [3.48] points"},
      {"measurement": "TOTPAR (sum of pain relief scores, categorical scale), mean [SD]", "result": "20.61 [2.67] points"}
    ]}
  ]
}
